PubChem BioAssay AID1259314 – Drosophila RNAi Screening Center | 2017

Test: 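Transmembrane protein genes affecting ATP after manganese overload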 (primary screen)
System: Drosophila S2R+ cells
Reagents: long dsRNA against Drosophila genes
Time to read-out: 5 days (4 days knock-down, then 1 day metal exposure)
Challenge: manganese chloride added to 15 mM for 24 hours
Read-out: 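Luciferase ATP signal used as a proxy for viable cell number, reported as one averaged z-score per dsRNA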
Reading the numbers: mean ATP z-score: higher = more ATP than the plate average, more viable cells under manganese
Call rule: 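a mean ATP z-score past 1.5 in either direction is called active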
Meaning of the calls: active = strong ATP change, up or down; inactive = no strong ATP change
Here is a random part of about 3,100 deposited reagents. 289 of all reagents (9.3%) count as active. 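Active includes both higher and lower ATP than plate average; check the z-score sign for direction.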 Names joined by + are all predicted targets of the reagent. Not stated in the record: the amount of reagent.

Dh31-R (Diuretic hormone 31 Receptor) [DRSC06669]
- mean ATP z-score: -0.0765
- Call: inactive

Dh31-R (Diuretic hormone 31 Receptor) [DRSC23417]
- mean ATP z-score: -0.619
- Call: inactive

rho-7 + CG34231 [DRSC39477]
- mean ATP z-score: 2.22
- Call: active

Irk1 (Inwardly rectifying potassium channel 1) [DRSC16106]
- mean ATP z-score: -0.637
- Call: inactive

CG7272 [DRSC10795]
- mean ATP z-score: -0.65
- Call: inactive

CG7272 [DRSC39569]
- mean ATP z-score: 0.103
- Call: inactive

CG34450 [DRSC17822]
- mean ATP z-score: -0.767
- Call: inactive

CG34450 [DRSC25085]
- mean ATP z-score: -0.772
- Call: inactive

comm (commissureless) [DRSC11336]
- mean ATP z-score: -0.385
- Call: inactive

comm (commissureless) [DRSC24259]
- mean ATP z-score: 0.317
- Call: inactive

CG11353 [DRSC08182]
- mean ATP z-score: -0.173
- Call: inactive

CG11353 [DRSC39681]
- mean ATP z-score: 0.924
- Call: inactive

mthl11 (methuselah-like 11) [DRSC12779]
- mean ATP z-score: -0.0662
- Call: inactive

mthl11 (methuselah-like 11) [DRSC28437]
- mean ATP z-score: -1.93
- Call: active

Tmc (Transmembrane channel-like) [DRSC10356]
- mean ATP z-score: -0.896
- Call: inactive

CG42329 [DRSC00682]
- mean ATP z-score: -0.922
- Call: inactive

E23 (Early gene at 23) [DRSC00593]
- mean ATP z-score: -0.392
- Call: inactive

E23 (Early gene at 23) [DRSC25491]
- mean ATP z-score: -0.452
- Call: inactive

Poxm + Ctr1B [DRSC16245]
- mean ATP z-score: -1.39
- Call: inactive

Poxm + Ctr1B [DRSC39592]
- mean ATP z-score: 0.0565
- Call: inactive

ppk27 (pickpocket 27) [DRSC22211]
- mean ATP z-score: -0.316
- Call: inactive

CG33635 [DRSC00006]
- mean ATP z-score: 0.336
- Call: inactive

Nmdar1 (NMDA receptor 1) [DRSC12071]
- mean ATP z-score: 0.356
- Call: inactive

Nmdar1 (NMDA receptor 1) [DRSC12356]
- mean ATP z-score: -0.674
- Call: inactive

Nmdar1 (NMDA receptor 1) [DRSC24657]
- mean ATP z-score: -0.844
- Call: inactive

AdoR (Adenosine receptor) [DRSC16556]
- mean ATP z-score: 0.503
- Call: inactive

AdoR (Adenosine receptor) [DRSC28071]
- mean ATP z-score: 0.461
- Call: inactive

Catsup (Catecholamines up) [DRSC03288]
- mean ATP z-score: -0.329
- Call: inactive

Catsup (Catecholamines up) [DRSC25727]
- mean ATP z-score: 0.632
- Call: inactive

nAChRalpha2 (nicotinic Acetylcholine Receptor alpha2) [DRSC17009]
- mean ATP z-score: -0.673
- Call: inactive

nAChRalpha2 (nicotinic Acetylcholine Receptor alpha2) [DRSC24487]
- mean ATP z-score: -0.403
- Call: inactive

CG17637 [DRSC11740]
- mean ATP z-score: -1.52
- Call: active

Gr98c (Gustatory receptor 98c) [DRSC26546]
- mean ATP z-score: 0.303
- Call: inactive

Gr98c (Gustatory receptor 98c) [DRSC39650]
- mean ATP z-score: -0.566
- Call: inactive

snky (sneaky) [DRSC09838]
- mean ATP z-score: -0.54
- Call: inactive

snky (sneaky) [DRSC39770]
- mean ATP z-score: -0.756
- Call: inactive

Unc-115b + p24-2 [DRSC16492]
- mean ATP z-score: -0.875
- Call: inactive

BicC (Bicaudal C) [DRSC02005]
- mean ATP z-score: -0.564
- Call: inactive

BicC (Bicaudal C) [DRSC29676]
- mean ATP z-score: -0.218
- Call: inactive

Or22b (Odorant receptor 22b) [DRSC00765]
- mean ATP z-score: 5.76
- Call: active

Or22b (Odorant receptor 22b) [DRSC39696]
- mean ATP z-score: -0.391
- Call: inactive

CG14053 [DRSC17908]
- mean ATP z-score: -0.00633
- Call: inactive

CG14053 [DRSC39512]
- mean ATP z-score: -0.486
- Call: inactive

PMP34 (Peroxisomal Membrane Protein 34) [DRSC21939]
- mean ATP z-score: -0.43
- Call: inactive

PMP34 (Peroxisomal Membrane Protein 34) [DRSC39444]
- mean ATP z-score: 0.741
- Call: inactive

CG12490 + CG30265 [DRSC25712]
- mean ATP z-score: -0.336
- Call: inactive

sbm (sobremesa) [DRSC20185]
- mean ATP z-score: -0.495
- Call: inactive

Laid out differently: 4 of the entries above
gene | dsRNA | mean ATP z-score | Call
CG34450 | DRSC25085 | -0.772 | inactive
comm (commissureless) | DRSC11336 | -0.385 | inactive
comm (commissureless) | DRSC24259 | 0.317 | inactive
CG11353 | DRSC08182 | -0.173 | inactive
